Assay results from patent US20100056570A1, “FUNGICIDES” (Syngenta Crop Protection, Inc., priority 2006, published 2010).
Some of these results come from one statement about several compounds together.

How the values were obtained:
Septoria nodorum = Septoria nodorum (wheat glume blotch) wheat leaf segment assay, preventive; format: in vivo; conditions: 200 ppm; wheat leaf segments; assessed four days after inoculation
[1] = system: Erysiphe graminis f.sp. tritici; experiment: Erysiphe graminis f.sp. tritici (wheat powdery mildew) wheat leaf segment assay, preventive; format: in vivo; conditions: 200 ppm; wheat leaf segments; assessed four days after inoculation
Septoria tritici = Septoria tritici (leaf blotch) growth inhibition in nutrient broth, microtiter plate; format: cell-based; conditions: 200 ppm; PDB broth, 24 C, inhibition of growth photometrically after 72 hrs
Plasmopara viticola = Plasmopara viticola (downy mildew of grapevine) grapevine leaf disk assay, preventive; format: in vivo; conditions: 200 ppm; grapevine leaf disks; assessed seven days after inoculation
Pythium ultimum = Pythium ultimum (Damping off) growth inhibition in potato dextrose broth, microtiter plate; format: cell-based; conditions: 20 ppm, 24° C., inhibition of growth photometrically after 48 hours

| Compound | control of fungal infection (Septoria nodorum) | control of fungal infection [1] | control of fungal infection (Septoria tritici) | control of fungal infection (Plasmopara viticola) | control of fungal infection (Pythium ultimum) |
| --- | --- | --- | --- | --- | --- |
| CSC(Oc1cc2cc(Br)cnc2cc1Cl)C(=O)NC(C)(C)C (centres unmarked) [12 (2), 2-(3-Bromo-7-chloro-quinolin-6-yloxy)-N-tert-butyl-2-methylsulfanyl-acetamide] | at least 60% | – | – | – | – |
| CSC(Oc1cc2cc(Br)cnc2cc1F)C(=O)NC(C)(C)C (centres unmarked) [12 (6), 2-(3-Bromo-7-fluoro-quinolin-6-yloxy)-N-tert-butyl-2-methylsulfanyl-acetamide] | – | at least 60% | at least 60% | – | – |
| CSC(Oc1cc2cc(I)cnc2cc1F)C(=O)NC(C)(C)C (centres unmarked) [12 (7), 2-(3-iodo-7-fluoro-quinolin-6-yloxy)-N-tert-butyl-2-methylsulfanyl-acetamide] | at least 60% | – | at least 60% | at least 60% | – |
| CSC(Oc1cc2cc(Br)cnc2cc1C)C(=O)NC(C)(C)C (centres unmarked) [12 (13), 2-(3-Bromo-7-methyl-quinolin-6-yloxy)-N-tert-butyl-2-methylsulfanyl-acetamide] | at least 60% | at least 60% | at least 60% | – | – |
| CSC(Oc1cc2cc(-c3ccsc3)cnc2cc1F)C(=O)NC(C)(C)C (centres unmarked) [12 (30), N-tert-butyl-2-(7-fluoro-3-thiophen-3-yl-quinolin-6-yloxy)-2-methylsulfanyl-acetamide] | at least 60% | – | – | – | – |
| COCC#CC(C)(C)NC(=O)C(Oc1cc2cc(Br)cnc2cc1F)SC (centres unmarked) [251 (6), 2-(3-Bromo-7-fluoro-quinolin-6-yloxy)-N-(4-methoxy-1,1-dimethyl-but-2-ynyl)-2-methylsulfanyl-acetamide] | at least 60% | at least 60% | at least 60% | – | at least 60% |
